Reference: article PMC9463143

T1: flag::mCherry::GLH-1 (C. elegans) (UniProt P34689)
T1 sequence: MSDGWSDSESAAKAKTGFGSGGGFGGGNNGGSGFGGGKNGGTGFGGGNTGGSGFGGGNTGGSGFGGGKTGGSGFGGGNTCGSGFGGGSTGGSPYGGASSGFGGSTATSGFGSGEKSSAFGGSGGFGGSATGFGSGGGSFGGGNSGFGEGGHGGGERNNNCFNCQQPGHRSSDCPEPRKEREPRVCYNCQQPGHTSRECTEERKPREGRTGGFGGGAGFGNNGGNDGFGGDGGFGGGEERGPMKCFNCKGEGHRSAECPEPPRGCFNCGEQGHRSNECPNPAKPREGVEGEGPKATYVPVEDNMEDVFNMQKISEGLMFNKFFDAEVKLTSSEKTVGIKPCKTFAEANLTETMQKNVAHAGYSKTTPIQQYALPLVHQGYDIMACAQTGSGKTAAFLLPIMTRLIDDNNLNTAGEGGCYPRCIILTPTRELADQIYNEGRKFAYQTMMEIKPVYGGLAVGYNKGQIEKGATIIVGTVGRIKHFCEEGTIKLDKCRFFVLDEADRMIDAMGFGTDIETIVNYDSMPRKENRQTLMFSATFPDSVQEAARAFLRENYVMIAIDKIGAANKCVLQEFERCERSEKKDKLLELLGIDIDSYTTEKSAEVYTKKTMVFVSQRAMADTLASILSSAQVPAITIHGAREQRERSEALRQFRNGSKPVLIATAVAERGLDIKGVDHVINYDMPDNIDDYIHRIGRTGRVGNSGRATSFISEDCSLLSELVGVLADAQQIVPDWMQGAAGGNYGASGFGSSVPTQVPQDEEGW


Molecular target: T1, flag::mCherry::GLH-1 (C. elegans)
Assay: affinity purification with mass spectrometry; worms crosslinked with 2 mM DTME for 30 min at room temperature; lysate in 20 mM Tris-HCl pH 7.5, 150 mM NaCl, 2.5 mM MgCl2, 0.5% NP-40; flag::mCherry::GLH-1 captured on anti-Flag magnetic beads 2 h at 4 °C; de-crosslinked with 10 mM DTT; LC-MS/MS; wild type (N2) as control; two biological replicates

Row | binding | Binder
1 | binds | PIWI PRG-1 (protein, UniProt P90786 1-824) MASGSGRGRGRGSGSNNSGGKDQKYLGTIQPDLFIRQQGQSKTGSSGQPQKCFANFIPIEMTQSDYSIYQYHVEFEPTVDSKANREKMLRDNNVTDEIGHHFVFDGMILYLKEEWEQNQMIEVQHPIDRSLICIRFKQTNRFLVDDPQTINIFNTIIRRSFDALQLTQLGRNYFNWGDSRAVPDYNMSILPGYETAIRMYEENFMLCVENRFKMVREESMYILFHKELRSCQNNPQRVQEKMNEMYGGTTIITRYNNKLHRYTRLDYSISPLSEFVKDGQSITLKEYFKNQYGIEITVDDQPIIISEGKPKQPGEPPQVSYIVPELCFPTGLTDEMRKDFKMMKEIAKHTRMSPQQRLVESRKLIVDLSKNEKVMECFKYWGISLGQDLANVQARVLKSEPLQGKKTYEGKQAEWARGVKECGIYRGSNMTNWIVIGPGSGNSGLLSQKFIEEARRLGKILQVQLGEPMCVPIRGISPNDYLEGVKGAIKQVDGEDIHMLVVMLADDNKTRYDSLKKFLCVECPIPNQCVNLRTLAGKSKDGGENKNLGSIVLKIVLQMICKTGGALWKVNIPLKNTMIVGYDLYHDSTLKGKTVGACVSTTSNDFTQFYSQTRPHENPTQLGNNLTHFVRKALKQYYDSNDQTLPSRLILYRDGAGDGQIPYIKNTEVKLVRDACDAVTDKAAELSNKVQEKIKLAFIIVTKRVNMRILKQGSSLDNAINPQPGTVVDTTVTRPERMDFYLVPQFVNQGTVTPVSYNIIHDDTDLGPDKHQQLAFKLCHLYYNWQGTVRVPAPCQYAHKLAFLTAQSLHDDANGCLRDKLFFL
2 | binds | DEPS-1 (protein, UniProt Q9N303 1-619) MSERQSKYFDYQGIVISSTGQDNQDSETDLVYLIQAHGKAAPKNIMYGVSKCAFVPTNLERNFDNIEEAKNLERRSKIPLKFGEVILWNESDCDHDKRIILHIKREKPIYEASSSRNGLILKVGGVIQPTSTTSFWTPLCTVTMPETEATRAEPDVWLYAWIRFETTMKSGLDPFNMTATFESFDSCDPSDQARVCEAPWNAGSPDSKFGVWRPDPKPADSDDEIDIEPREGWHLPEDKWAEVIKMQLGLYVGERLLICKELSQFDFIIPLQKPFSRGTDKTLIYPAVGEYFHFSAIWSMQHNGFLIYELQPVPLLRQHVTSVNGNLLTRVVPASIRGLFVDKEGTLGLIDDPHHLLSFFEFHPAGYEFLKAMAEVRAVRTSENKSVRYRIVRTSGMSIFENWLRDTQFVVGPVKGIRINEDTVICAKHPNVYFKIPNNLKEGIPIGGGVQFVGKRQAGVDSEIMITECSPCPAFTCKNYSVSGDTRLFQVYLKPNCDHEQLAESDSMGFVDFRELETPCRGKFLAWVRESITVNDCRRAATIMEVCSTAICPPLIAMSANSSRATSARTTPAGSSIGSRSSIQSRASAATSVSSNRFVGPSSRRTPSGTPQSSTSSRV

Results are given in words; binding and its absence hold for the method and conditions named. Binding seen in cells or lysates may run through a third protein. A yes stands for co-enrichment or nearness to the bait. Other partners may have been found. Sequences can lack the tags named with a protein.
